Experimental data published in PubChem BioAssay AID2417 (National Center for Advancing Translational Sciences (NCATS), 2010).
In all, about 140,000 compounds went through this assay and about 4,300 (3.1%) were called active. This list was built around the results that the source calls inconclusive (neither active nor inactive); the mix of calls is not that of the screen.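 How the source made its calls: active means readout at or below -70, meaning at least 70% loss of cells showing the perinucleolar compartment, a nuclear body marking cancer cells; inconclusive means readout between -30 and a set limit; inactive means the rest.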

Assay: High Content Assay for Compounds that inhibit the Assembly of the Perinucleolar Compartment;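 further: plate controls were DMSO wells for no effect and camptothecin positive control wells for full effect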
Details: PC3M PTB-GFP, PNC prevalence imaging, 16 h; at 10 µM; hits give low values
Source text: High Content Assay for Compounds that inhibit the Assembly of the Perinucleolar Compartment NIH Chemical Genomics Center [NCGC] NIH Molecular Libraries Probe Centers Network [MLPCN] MLPCN Grant: MH082371-01A2 Assay Submitter (PI): Sui Huang, Northwestern University, Feinberg School of Medicine, Cell and Molecular Biology, Chicago, Illinois. The perinucleolar compartment (PNC) is a non-membrane-bound nuclear subdomain that is associated with but structurally distinct from the nucleolus. The PNC is a heritable trait, in which the number of PNCs per cell in daughter cells often mimics that of their mother cells. The PNC is heterogeneous in shape, is stable through interphase, disassembles during mitosis, and reassembles in early G1. The PNC is concentrated with newly synthesized RNA polymerase III (pol III) RNAs (MRP RNA, RNAse P H1 RNA, hY RNAs[hY1, 2, 5], Alu RNA, and SRP [7SL] RNA) and RNA binding proteins (nucleolin, PTB, CUG-BP, KSRP, Raver1, Raver2, and Rod). […] Extensive in vitro studies have shown that the PNC is unique to tumor cells and preferentially forms in tumor cells derived from solid tissues. Examination of cancer cell lines from various origins and malignant capacities has shown that PNC prevalence correlates with the malignancy of tumors and has the potential to be developed as a pan-cancer prognostic marker. […] Although the PNC is associated with a DNA locus and a handful of components have been identified, much remains to be investigated regarding the structure and function of the PNC and its mechanistic link to cancer. We have previously shown that PNC prevalence reduction is a valid strategy to identify compounds that can be used to study the structure and function of the PNC. It is necessary, however, to create a screening platform that is able to test a large number of compounds in an automated fashion. Here we report the development and robustness of an automated whole-cell phenotypic image-based screening assay that is capable of identifying such compounds.
PNC High Content Imaging Assay Procedure: 1. Cells at a density of 75-90% confluency in T175 flasks were harvested using 7 ml TrypLE Express cell dissociation reagent. After dissociation (5 minutes room temperature incubation) 10 ml of complete media was added to the TrypLE/cell suspension. The liquid was transferred to a 50 ml Conical tube and cells were pelleted at 1000 RPM for 5 min. Supernatant was removed and cells were resuspended to a final density of 150-200 cells/ul in complete media. 2. Cells were plated in 5 ul volume (750-1000 cells/well) into 1536 well Black uclear Aurora Low Base plates and allowed to recover and adhere at 37 C in a humidified 5% CO2 incubator for 4 hours. 3. After 4 hour incubation, compound libraries (23 nl of […] in columns 5-48) were transferred to the plates in duplicate using a 1536 well pintool. Camptothecin positive control (59 uM final) was added to column 2 and 1:3 dilutions of camptothecin was added to column 3. DMSO negative controls were present in columns 1 and 4. 4. After a 16 hour incubation in the 37 C incubator, cells were fixed by the addition of 4 ul of 6% EM grade paraformaldehyde (containing 0.1% triton X 100) directly to the cells. The plates were incubated at room temperature for 20 minutes. The liquid was removed using a 32 channel Kalypsys aspirator and the fixed cells were washed twice with 5 ul PBS followed by a final addition of 5 ul PBS containing 1 ug/ml Hoechst 33342. 5. Fixed plates were sealed and sotred at 4C until imaged. 6. Plates were imaged on an InCell 1000 automated microscope using a 20 x objective, a standard FITC filter set, no camera binning, and an exposure time of ~100-150 msec/well. 7. Data analysis. PNC prevalence was determined using the Multitarget analysis module from InCell Workstation software (V3.5 ) and analysis was run on a quad core workstation using the Incell Developer Toolbox (V1.7). […]

| SMILES | activity change (PNC), negative = inhibition |
| --- | --- |
| O=C(Nc1nccs1)c1ccc(S(=O)(=O)N2CCCCC2)cc1 | inconclusive: -35.9% |
| C=CCOn1c(=O)c(-c2ccc(OC)c(OC)c2)[n+]([O-])c2ccccc21 | inactive: 12.1% |
| Cc1nc(C(=O)N(C)C)nn1-c1cc(Cl)cc(Cl)c1 | inconclusive: -70.3% |
| COc1ccc(NCc2nnc(SCC(=O)c3ccc(OC)cc3)o2)cc1 | inconclusive: -44.6% |
| CCC(C)Oc1cccc(C(=O)Nc2ccccc2N2CCOCC2)c1 (stereo not drawn) | active: -86.8% |
| Cc1ccc(C)c(OCCCC(=O)Nc2nccs2)c1 | inactive: 18.2% |
| COc1ccc(/C=C2\CCOC2=O)cc1 | inconclusive: -31.7% |
| CNC(=O)C(=O)NCC1OCCN1S(=O)(=O)c1ccc([N+](=O)[O-])cc1 (stereo not drawn) | inconclusive: -37.6% |
| Cc1cc(NC(=O)C(=O)NCCN2CCN(C(=O)c3cccs3)CC2)ccc1Br | active: -100% |
| CCCCCCCCCS(=O)(=O)N/N=C/c1cccc([N+](=O)[O-])c1 | inconclusive: -71.2% |
| COc1ccccc1NC(=O)C(=O)N1N=C(C(C)C)CC1(O)C(F)(F)F (stereo not drawn) | inactive: 53.3% |
| COC(=O)c1sc(S(=O)(=O)Nc2ccc(Br)cc2)c(C(=O)OC)c1C | inactive: -21.8% |
| CN(C)C(=O)NC(O)C(Cl)Cl (stereo not drawn) | inconclusive: -34.1% |
| COc1ccc2[nH]c(=O)c(CN(C(=O)c3ccccn3)c3ccccc3)cc2c1 | active: -92% |
| Cc1nnc(SCC(=O)Nc2nnc(SCc3cccc(Br)c3)s2)s1 | inconclusive: -74% |
| S=C(NCc1ccccc1Cl)NC1CCCC1 | active: -88.3% |
| CCOc1cc(/C=C2/C(=O)N(c3ccccc3)N=C2C)ccc1OC(=O)c1cccs1 | inactive: 75% |
| CC(C)(C)c1ccc(C(=O)N2CCC(C(=O)NCc3ccncc3)CC2)cc1 | inconclusive: -36.2% |
| c1ccc(-c2csc(N3CCOCC3)n2)cc1 | inconclusive: -44.3% |
| COc1ccc(/C=N/OCC(=O)Nc2nc3ccccc3s2)cc1 | inconclusive: -65.5% |

Filtered by structure, the compounds so far with a nitro group on carbon.

| SMILES | activity change (PNC), negative = inhibition |
| --- | --- |
| CNC(=O)C(=O)NCC1OCCN1S(=O)(=O)c1ccc([N+](=O)[O-])cc1 (stereo not drawn) | inconclusive: -37.6% |
| CCCCCCCCCS(=O)(=O)N/N=C/c1cccc([N+](=O)[O-])c1 | inconclusive: -71.2% |

Later entries

| SMILES | activity change (PNC), negative = inhibition |
| --- | --- |
| COc1cccc(C2(O)CCN(C(=O)Cc3cccnc3)CC2)c1 | inconclusive: -50.1% |
| CCOC(=O)C1CCCN(Cc2nc(N)nc(Nc3ccccc3)n2)C1 (stereo not drawn) | inconclusive: -32.2% |
| CN(C(=O)COC(=O)C1CCN(S(=O)(=O)c2cccs2)CC1)C1CCS(=O)(=O)C1 (stereo not drawn) | inconclusive: -66.1% |
| Cc1ccc(OCc2nnc(NC(=O)OCC(C)C)s2)cc1 | inactive: 26.9% |
| COc1ccc(OC)c(CN2CCN(C(=O)c3cccc4ccccc34)CC2)c1 | inconclusive: -33.7% |
| Cc1cc(C(=O)N2CCCCCC2)cs1 | active: -124% |
| COc1ccc(-c2cc(C(F)(F)F)nc(SCC(=O)Nc3cc(C)on3)n2)cc1 | inconclusive: -33% |
| CC(C)C(=O)NC(c1ccccc1)c1cc([N+](=O)[O-])c2cccnc2c1O (stereo not drawn) | inactive: -22.1% |
| COc1ccccc1N1CCN(C(=O)CC2NC3CCCCC3NC2=O)CC1 (stereo not drawn) | inconclusive: -35.4% |
| Cc1ccc2nc(SCC(=O)Nc3ccccc3N3CCOCC3)c(C#N)cc2c1 | active: -111% |
| O=C(Nc1ccc(Cl)cn1)c1ccc(COCC(F)(F)C(F)F)o1 | inconclusive: -39.1% |
| Cc1cc2c(c(=O)o1)C(C(C)C)C(C#N)=C(N)O2 (stereo not drawn) | inactive: -0.729% |
| Cc1ccc(NC(=O)c2cccs2)cc1S(=O)(=O)N(C)C | inactive: 22.8% |
| O=C(Nc1ccccc1Cl)c1ccccc1S(=O)(=O)c1ccccc1[N+](=O)[O-] | inconclusive: -35.1% |
| CC(=O)Nc1cc(C(=O)NCc2ccco2)ccc1Sc1ccc(Cl)cc1 | active: -103% |
| COC(=O)c1ccc(-c2csc(NC(=O)c3ccc(S(=O)(=O)N4CCc5ccccc5C4)cc3)n2)cc1 | inconclusive: -31% |
| CC(=O)N1CC[n+]2c(-c3ccc(Cl)cc3Cl)csc21 | inactive: 42.2% |
| Cc1c(O)ccc(-c2[nH]ncc2-c2nc3ccccc3s2)c1O | inconclusive: -38.4% |
| Cc1noc(C)c1COc1ccc(C(=O)OCC(=O)Nc2ccc3ccccc3c2)cc1 | inactive: 6.31% |
| Cc1ccccc1-c1nnc(SCC(=O)Nc2ccc3c(c2)OCCO3)n1N | inactive: -13.3% |

| SMILES | activity change (PNC), negative = inhibition |
| --- | --- |
| Cc1ccc(S(=O)(=O)N(C)c2ccc(OCC(=O)O)cc2)cc1 | inconclusive: -52% |
| Cc1occc1-c1nnc(SCC(=O)NC(C)(C)C)n1C(C)c1ccccc1 (stereo not drawn) | inconclusive: -58.3% |
| Cc1cc(C)[n+]2n1C(=O)C(c1ccccc1)=C2[O-] | inconclusive: -36.1% |
| COc1ccc(/C=N/Nc2cc(C)nc(NS(=O)(=O)c3ccc(C)cc3)n2)cc1 | inconclusive: -56.8% |
| O=C(O)C1C2C=CC3(O2)C1C(=O)N1c2ccccc2C2OCCC2C13 (stereo not drawn) | inconclusive: -35.6% |
| CC(C)CNC(=O)CC(=O)NN=C1CCCC1 | active: -113% |
| CCn1c(SCC(=O)NCCc2ccccc2)nc2c(c1=O)SC(C)C2 (stereo not drawn) | inconclusive: -37.2% |
| CC(C)NC(=O)c1ccc(CNC(=O)OCC(F)(F)F)cc1 | inactive: 27.3% |
| Cc1ccc(CS(=O)(=O)Cc2ccc(C(=O)NCCCN3CCOCC3)o2)cc1 | inactive: 18.4% |
| O=C(NNC(=O)c1cc(O)c(O)c(O)c1)NC1CCCCC1 | inactive: 115% |
| CCOc1ccc(OCC)c(S(=O)(=O)NCCOC23CC4CC(CC(C4)C2)C3)c1 | inconclusive: -38.5% |
| CC(C)(C)c1ccc(C(=O)N2CCCN(C(=O)c3ccc(C(C)(C)C)cc3)CC2)cc1 | inactive: 191% |
| CC(=O)C1=NN(c2ccccc2)C(c2ccc3c(c2)OCO3)N1c1ccc(N2CCOCC2)cc1 (stereo not drawn) | inactive: 9.22% |
| CCCCCC(=O)NC(=S)Nc1ccc(Cl)cn1 | inactive: 25.5% |
| COC(=O)c1c(C)oc2ccc(N(C(=O)c3ccncc3)S(=O)(=O)c3ccc(C)cc3)cc12 | inconclusive: -78.6% |
| COC(=O)c1ccc(C(=O)OC)c(NC(=O)COC(=O)c2ccccc2OC)c1 | inconclusive: -32.8% |
| COC(=O)CSc1nsc(SCC(=O)OC)c1C#N | inconclusive: -69.9% |
| CCCCCOC(=O)Cn1c(SCC(=O)Nc2ccccc2)nc2c1c(=O)[nH]c(=O)n2C | inconclusive: -37.5% |
